The assay addresses PilA, major pilin, mature full-length, fused to T18 or T25 (BACTH) (M. xanthus) (UniProt Q59589). Put plainly: two-hybrid; Bacterial Two-Hybrid (BACTH, Euromedex) in E. coli BTH101; T18 and T25 CyaA fragment fusions; blue colour on X-gal/IPTG plates and relative β-galactosidase activity, four clones a pair.

These are yes or no findings as the source states them, for the method shown. Some binding calls cover weakened binding; strength is not graded here. Tags and fused reporters may be left off the sequences shown.

B1: PilA, major pilin, mature full-length, fused to T18 or T25 (BACTH) (protein, UniProt Q59589 13-220)
chain: FTLIELMIVVAIIGILAAIAIPNFIKFQARSKQSEAKTNLKALYTAQKSFFSEKDRYSDFANEIGFAPERGNRYGYRVSAAAGDCEVRNAADLPVPAAGVPCISNDSFRFGANSAIDDPTPVVARFVPQGAAGWNTTLGVQPTIADCPNCNFFAGARGNADNEATFDDWVIAGFEGSGQVGPCSEAGNVASGTPYNTRNDVACDGAAQ
As to B1, the binding result was “binds”.

For the origin of these results see PMC7541494.
